Where a name gives a salt, the structure may show the parent alone. Read-outs that look alike come from different tables or passages of the source. Hit rate of the full screen: of about 3,300 compounds, about 95 (3%) showed an effect of 50% or more. The list shows a part of the results.
System: HCoV-229E
Design: species or system Huh-7; HTS, protection from HCoV-229E induced cell death, luminescent cell viability (CellCounting-Lite 2.0), inhibition rate
Conditions: 24 h post infection, 1 h compound pre-incubation, 10 µM, inhibitor

Compound: C[C@@H]1O[C@@H](O[C@H]2[C@H](Oc3cc(O)c4c(=O)cc(-c5ccc(O)c(O)c5)oc4c3)O[C@H](CO)[C@@H](O)[C@@H]2O)[C@H](O)[C@H](O)[C@H]1O [Lonicerin]
- 229E Inhibition rate: 10.5%

Compound: CCOC(=O)c1cc(O)c(O)c(O)c1 [Ethyl gallate]
- 229E Inhibition rate: 25.5%

Compound: CC1(C)CC[C@]2(C(=O)O)CC[C@]3(C)C(=CC[C@@H]4[C@@]5(C)CC[C@H](O[C@@H]6O[C@H](C(=O)O)[C@@H](O)[C@H](O)[C@H]6O)C(C)(C)[C@@H]5CC[C@]43C)[C@@H]2C1 [Calenduloside E]
- 229E Inhibition rate: 12.9%

Compound: O=c1[nH]c(=O)c2nc[nH]c2[nH]1 [Xanthine]
- 229E Inhibition rate: 9.9%

Compound: C[N+](C)(C)[C@@H](Cc1c[nH]c2ccccc12)C(=O)[O-] [Hypaphorine]
- 229E Inhibition rate: 13.1%

Compound: CCCCCCCCCCCC(C)=O [2-Tridecanone]
- 229E Inhibition rate: 18.3%

Compound: COc1cc(O)cc(OC)c1OC [Antiarol]
- 229E Inhibition rate: 7.9%

Compound: COc1ccc(-c2oc3cc(O)cc(O)c3c(=O)c2O)cc1O [Tamarixetin]
- 229E Inhibition rate: 20.9%

Compound: C[C@]12CC[C@@H](O)C[C@H]1CC[C@@H]1[C@@H]2[C@@H](O)C[C@@]2(C)[C@H]1CC[C@]2(O)C(=O)CO [Tetrahydrocortisol]
- 229E Inhibition rate: 8.8%

Compound: CC(C)=CCC[C@](C)(O)[C@H]1CC[C@]2(C)[C@@H]1[C@H](O)C[C@@H]1[C@@]3(C)CC[C@H](O)C(C)(C)[C@@H]3[C@@H](O[C@@H]3O[C@H](CO)[C@@H](O)[C@H](O)[C@H]3O[C@@H]3O[C@@H](C)[C@H](O)[C@@H](O)[C@H]3O)C[C@]12C [Ginsenoside Rg2]
- 229E Inhibition rate: 54.2%

Compound: COC(=O)/C=C/C(=O)OC [Dimethyl fumarate]
- 229E Inhibition rate: 44.6%

Compound: C[C@H](CCC(=O)NCC(=O)O)[C@H]1CC[C@H]2[C@@H]3[C@H](O)C[C@@H]4C[C@H](O)CC[C@]4(C)[C@H]3CC[C@]12C [Glycochenodeoxycholic acid]
- 229E Inhibition rate (229E Inhibition rate, 24 h): 9.1%

Compound: CCCCCCCCCCCCCCCc1cccc(O)c1C(=O)O [Anacardic Acid]
- 229E Inhibition rate: 20.1%

Compound: O=C(O)CCCCCC(=O)O [Pimelic acid]
- 229E Inhibition rate: 40.5%

Compound: C[C@H](CCC(=O)O)[C@H]1CC[C@H]2[C@@H]3C(=O)C[C@@H]4CC(=O)CC[C@]4(C)[C@H]3CC(=O)[C@]12C [Dehydrocholate (sodium)]
- 229E Inhibition rate: 8.8%

Compound: C[C@@H]1O[C@@H](O[C@H]2[C@H](O[C@H]3CC[C@@]4(C)[C@@H](CC[C@]5(C)[C@@H]4CC=C4[C@@H]6CC(C)(C)CC[C@]6(C(=O)O)CC[C@]45C)[C@]3(C)CO)OC[C@H](O)[C@@H]2O)[C@H](O)[C@H](O)[C@H]1O [alpha-Hederin]
- 229E Inhibition rate: 2.9%

Compound: CC[C@@H]1CN2CC[C@]3(C(=O)Nc4ccccc43)[C@@H]2C[C@@H]1/C(=C\OC)C(=O)OC [Corynoxine B]
- 229E Inhibition rate: 0%

Compound: C[C@@H](O)CO [(R)-(-)-1,2-Propanediol]
- 229E Inhibition rate: 34.2%

Compound: C[C@H]1[C@H](C)CC[C@]2(C)CC[C@]3(C)C(=CC[C@@H]4[C@@]5(C)CC[C@@H](O)[C@](C)(C(=O)O)[C@@H]5CC[C@]43C)[C@H]12 [β-Boswellic acid]
- 229E Inhibition rate: 22.5%

Compound: NCCP(=O)(O)O [(2-Aminoethyl)phosphonic acid]
- 229E Inhibition rate: 11.2%

Compound: CCCCCCCCCCC/C=C\CCCCC(=O)O [Petroselinic acid]
- 229E Inhibition rate: 0%

Compound: C[C@H]1C(=O)CC[C@@H]2[C@]1(C)CC[C@H]1[C@@]2(C)CC[C@@]2(C)[C@@H]3CC(C)(C)CC[C@]3(C)CC[C@]12C [Friedelin]
- 229E Inhibition rate: 14%

Compound: CCCCCCCC/C=C\CCCCCCCCCC(=O)O [Gondoic acid]
- 229E Inhibition rate: 0%

Compound: OCC(CO)N[C@H]1C[C@](O)(CO)[C@@H](O)[C@H](O)[C@H]1O [Voglibose]
- 229E Inhibition rate: 9.7%

Compound: C[C@@H]1O[C@@H](OC[C@H]2O[C@@H](Oc3c(-c4ccc(O)cc4)oc4cc(O)cc(O)c4c3=O)[C@H](O[C@@H]3O[C@H](CO)[C@H](O)[C@H](O)[C@H]3O)[C@@H](O)[C@@H]2O)[C@H](O)[C@H](O)[C@H]1O [Camelliaside A]
- 229E Inhibition rate: 0%

Compound: CC(C)=CCC[C@](C)(O[C@@H]1O[C@H](CO)[C@@H](O)[C@H](O)[C@H]1O)[C@H]1CC[C@]2(C)[C@@H]1[C@H](O)C[C@@H]1[C@@]3(C)CC[C@H](O[C@@H]4O[C@H](CO)[C@@H](O)[C@H](O)[C@H]4O[C@@H]4O[C@H](CO)[C@@H](O)[C@H](O)[C@H]4O)C(C)(C)[C@@H]3CC[C@]12C [Ginsenoside Rd]
- 229E Inhibition rate: 13.9%

Compound: O=c1ncnc2n([C@H]3O[C@@H](CO)[C@H](O)[C@@H]3O)[nH]cc1-2 (stereo in doubt) [Allopurinol riboside]
- 229E Inhibition rate: 19.3%

Compound: Cc1cc2nc3c(=O)[nH]c(=O)nc-3n(C[C@H](O)[C@H](O)[C@H](O)COP(=O)(O)O)c2cc1C [Riboflavin (phosphate sodium)]
- 229E Inhibition rate: 8.2%

Compound: COc1cc2c(cc1O)CC[n+]1cc3c(OC)c(OC)ccc3cc1-2 [Jatrorrhizine (hydroxide)]
- 229E Inhibition rate (229E Inhibition rate, 24 h): 11.3%

Compound: O=C(O)c1cc(=O)c2ccccc2[nH]1 [Kynurenic acid]
- 229E Inhibition rate: 21.5%

Compound: O=C1c2ccc(O)cc2OCC1c1ccc(O)cc1 (stereo not shown) [Dihydrodaidzein]
- 229E Inhibition rate: 16.3%

Compound: O=C(O)C(=O)Cc1ccccc1 [Phenylpyruvic acid]
- 229E Inhibition rate: 24%

Compound: CCCC(C)C(=O)O (stereo not shown) [2-Methylvaleric acid]
- 229E Inhibition rate: 8.1%

Compound: O=C(O)C(=O)CO [Hydroxypyruvic acid]
- 229E Inhibition rate: 11.1%

Compound: CNCC(=O)O [Sarcosine]
- 229E Inhibition rate: 12.1%

Compound: Cc1ccc(C(=O)O)cc1 [p-Toluic acid]
- 229E Inhibition rate: 6.6%

Compound: CC(=O)O[C@@H]1C[C@@]23C[C@@]24CC[C@H](O[C@@H]2OC[C@H](O)[C@H](O)[C@H]2O)C(C)(C)[C@@H]4CC[C@H]3[C@]2(C)[C@@H](O)[C@]34O[C@H](C[C@@H](C)[C@@H]3[C@@]12C)[C@@H](C(C)(C)O)O4 [Cimiracemoside D]
- 229E Inhibition rate: 22%

Compound: COc1cc(O)c2c(=O)c(OC)c(-c3ccc(O)c(OC)c3)oc2c1 [Pachypodol]
- 229E Inhibition rate: 0%

Compound: O=C1c2cccc(O)c2C(=O)c2c(O)cccc21 [Danthron]
- 229E Inhibition rate: 0%

Compound: O=C1C[C@@H](c2ccc(O)c(O)c2)Oc2c1ccc(O[C@@H]1O[C@H](CO)[C@@H](O)[C@H](O)[C@H]1O)c2O [Flavanomarein]
- 229E Inhibition rate: 35.1%

Compound: COc1ccc2c(c1)O[C@H]1c3ccc(O)cc3OC[C@@H]21 [Medicarpin]
- 229E Inhibition rate: 12.1%

Compound: COc1ccc2cc1Oc1ccc(cc1)C[C@H]1c3cc(c(OC)cc3CCN1C)Oc1c(O)c(OC)cc3c1[C@H](C2)N(C)CC3 [Fangchinoline]
- 229E Inhibition rate: 11.1%

Compound: CCOC(N)=O [Urethane]
- 229E Inhibition rate: 9.7%

Compound: OC[C@H]1O[C@@H](Oc2cc(O)cc(/C=C/c3ccc(O[C@@H]4O[C@H](CO)[C@@H](O)[C@H](O)[C@H]4O)cc3O)c2)[C@H](O)[C@@H](O)[C@@H]1O [Mulberroside A]
- 229E Inhibition rate: 4.6%

Compound: COc1ccc2c3c1O[C@H]1C[C@@H](O)C=C[C@@]31CCN(C)C2 [Galanthamine]
- 229E Inhibition rate (229E Inhibition rate, 24 h): 37.6%

Compound: N[C@@H](Cc1cc(I)c(O)c(I)c1)C(=O)O [(S)-2-Amino-3-(4-hydroxy-3,5-diiodophenyl)propanoic acid dihydrate]
- 229E Inhibition rate: 17.5%

Compound: CN1C(C(=O)Nc2ccccn2)=C(O)c2sc(Cl)cc2S1(=O)=O [Lornoxicam]
- 229E Inhibition rate: 9.3%

Compound: C[C@H](O)C(=O)N[C@@H](Cc1ccccc1)C(=O)O [N-Lactoyl-Phenylalanine]
- 229E Inhibition rate: 15.1%

Compound: C[C@H](CC[C@@H](O)C(C)(C)O)[C@H]1CC[C@@]2(C)[C@@H]3CC=C4[C@@H](CC[C@H](O)C4(C)C)[C@]3(C)C(=O)C[C@]12C [Bryodulcosigenin]
- 229E Inhibition rate: 12.5%

Compound: COc1ccc(-c2cc(=O)c3c(OC)c(OC)c(OC)c(OC)c3o2)cc1 [Tangeretin]
- 229E Inhibition rate: 9%

Compound: O=C1Nc2ccccc2C1=O [Isatin]
- 229E Inhibition rate: 0%

Compound: C=C[C@]12CN(C)[C@@H]3[C@H]4CO[C@H](C[C@H]41)[C@]1(C(=O)N(OC)c4ccccc41)[C@@H]32 [Gelsevirine]
- 229E Inhibition rate: 12.5%

Compound: Oc1cc(O)c2c(c1)O[C@H](c1ccc(O)c(O)c1)[C@@H](O)C2 [Catechin]
- 229E Inhibition rate (229E Inhibition rate, 24 h): 7.2%

Compound: CS(C)(=O)=O [Dimethyl sulfone]
- 229E Inhibition rate: 9.5%

Compound: COc1cc2c(c(OC)c1OC)-c1c(cc(OC)c(OC)c1OC)C[C@](C)(O)[C@@H](C)C2 [Schisandrin]
- 229E Inhibition rate: 5.1%

Compound: O=C(O)c1c(O)cccc1O [2,6-Dihydroxybenzoic acid]
- 229E Inhibition rate: 10.3%

Compound: O=C(O)[C@H]1O[C@@H](Oc2cc(O)c3c(=O)cc(-c4ccc(O)cc4)oc3c2)[C@H](O)[C@@H](O)[C@@H]1O [Apigenin-7-glucuronide]
- 229E Inhibition rate: 0%

Compound: NCCc1ccc(O)cc1 [Tyramine (hydrochloride)]
- 229E Inhibition rate (229E Inhibition rate, 24 h): 9%

Compound: CC1(C)C=Cc2c(ccc3c2OC[C@@H](c2ccc(O)cc2O)C3)O1 [Glabridin]
- 229E Inhibition rate: 54.3%

Compound: O=c1cc[nH]c(=O)[nH]1 [Uracil]
- 229E Inhibition rate: 4.8%

Compound: C[C@@H]1CC[C@@]2(OC1)O[C@H]1C[C@H]3[C@@H]4CC=C5C[C@@H](O[C@@H]6O[C@H](CO)[C@@H](O[C@@H]7O[C@@H](C)[C@H](O)[C@@H](O)[C@H]7O)[C@H](O)[C@H]6O[C@@H]6O[C@@H](C)[C@H](O)[C@@H](O)[C@H]6O)CC[C@]5(C)[C@H]4CC[C@]3(C)[C@H]1[C@@H]2C [Dioscin]
- 229E Inhibition rate: 4.4%

Reference: publication PMC12431657, “Discovery and mechanistic insights of dibenzoylmethane as a broad spectrum inhibitor of coronavirus” (PLOS Pathogens, 2025)
